These are yes or no findings as the source states them, for the method shown. In cells and extracts the contact can be indirect. A result given as binding can be weak or reduced; the word gives no strength.
How the values were obtained:
GST::CFDP1 (human) = GST::CFDP1 (human) (UniProt Q9UEE9); assay: pull-down; GST, GST::YETI or GST::CFDP1 bound to glutathione-agarose beads, incubated overnight at 4 °C with whole Drosophila larvae extracts in 20 mM Tris pH 8, 150 mM NaCl, 0.5% Nonidet P-40, 1 mM EDTA; five washes; Western blotting (anti-Flag or anti-CFDP1); only the target purified
[1] = target: GST::YETI (D. melanogaster); assay: as above

Protein sequences, listed by entry. Tags and fused reporters are not part of them. Lines headed by an entry give the natural chain unless they say otherwise; changes in a name come on top.
UniProt Q9UEE9: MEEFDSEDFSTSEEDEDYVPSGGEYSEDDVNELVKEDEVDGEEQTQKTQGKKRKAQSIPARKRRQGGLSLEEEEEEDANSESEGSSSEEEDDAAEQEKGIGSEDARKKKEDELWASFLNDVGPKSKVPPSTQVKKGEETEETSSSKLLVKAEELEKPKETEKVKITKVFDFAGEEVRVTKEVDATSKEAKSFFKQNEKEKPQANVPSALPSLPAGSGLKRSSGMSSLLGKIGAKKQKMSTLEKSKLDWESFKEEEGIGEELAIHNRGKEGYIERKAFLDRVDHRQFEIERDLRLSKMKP
UniProt A0A0B7PL88: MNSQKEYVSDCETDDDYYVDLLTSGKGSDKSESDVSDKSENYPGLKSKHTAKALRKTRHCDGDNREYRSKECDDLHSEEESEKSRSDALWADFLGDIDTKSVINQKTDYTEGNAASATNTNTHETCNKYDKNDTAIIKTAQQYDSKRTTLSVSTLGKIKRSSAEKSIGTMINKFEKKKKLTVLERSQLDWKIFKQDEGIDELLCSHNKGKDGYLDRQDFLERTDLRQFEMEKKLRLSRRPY

| Substance | binding (GST::CFDP1 (human)) | binding [1] |
| --- | --- | --- |
| 3xFLAG::YETI (from UniProt A0A0B7PL88) | binds | binds |
| CFDP1 protein expressed from the UAS-Cfdp1 transgene in Drosophila larvae (from UniProt Q9UEE9 1-299) |  | binds |
